Results as given in the supplement of paper PMC6411743.
± gives the standard deviation of the averaged measurements. The list shows a part of the results.

Chains of the proteins cited; added tags and fusions are not shown. Lines headed by an entry give the natural chain unless they say otherwise; changes in a name come on top.
UniProt Q08380: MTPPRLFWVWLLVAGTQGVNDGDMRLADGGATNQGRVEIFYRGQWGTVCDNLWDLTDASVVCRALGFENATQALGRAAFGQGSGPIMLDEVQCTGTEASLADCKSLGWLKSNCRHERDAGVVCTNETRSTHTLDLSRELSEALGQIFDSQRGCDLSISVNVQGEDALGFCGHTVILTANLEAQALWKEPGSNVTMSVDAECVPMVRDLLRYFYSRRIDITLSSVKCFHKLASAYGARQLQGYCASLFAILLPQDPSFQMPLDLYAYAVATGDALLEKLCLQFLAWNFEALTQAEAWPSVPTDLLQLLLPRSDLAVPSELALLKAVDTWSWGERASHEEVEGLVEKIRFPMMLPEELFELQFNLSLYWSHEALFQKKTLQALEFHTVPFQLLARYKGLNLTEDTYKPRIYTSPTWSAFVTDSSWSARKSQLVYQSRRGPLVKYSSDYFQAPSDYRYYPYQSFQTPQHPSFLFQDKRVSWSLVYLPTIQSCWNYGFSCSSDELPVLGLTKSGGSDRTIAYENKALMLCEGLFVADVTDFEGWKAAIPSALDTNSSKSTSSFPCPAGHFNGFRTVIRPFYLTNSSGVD
UniProt Q13347, whole entry: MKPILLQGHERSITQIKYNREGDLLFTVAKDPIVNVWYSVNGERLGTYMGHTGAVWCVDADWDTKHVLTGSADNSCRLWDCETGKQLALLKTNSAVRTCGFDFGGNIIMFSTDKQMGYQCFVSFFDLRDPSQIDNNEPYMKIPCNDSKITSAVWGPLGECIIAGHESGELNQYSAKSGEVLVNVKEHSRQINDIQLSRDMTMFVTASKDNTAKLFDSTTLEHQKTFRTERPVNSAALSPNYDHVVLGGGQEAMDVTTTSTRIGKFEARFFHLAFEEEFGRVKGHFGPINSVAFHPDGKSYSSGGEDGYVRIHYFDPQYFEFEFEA
UniProt Q00796: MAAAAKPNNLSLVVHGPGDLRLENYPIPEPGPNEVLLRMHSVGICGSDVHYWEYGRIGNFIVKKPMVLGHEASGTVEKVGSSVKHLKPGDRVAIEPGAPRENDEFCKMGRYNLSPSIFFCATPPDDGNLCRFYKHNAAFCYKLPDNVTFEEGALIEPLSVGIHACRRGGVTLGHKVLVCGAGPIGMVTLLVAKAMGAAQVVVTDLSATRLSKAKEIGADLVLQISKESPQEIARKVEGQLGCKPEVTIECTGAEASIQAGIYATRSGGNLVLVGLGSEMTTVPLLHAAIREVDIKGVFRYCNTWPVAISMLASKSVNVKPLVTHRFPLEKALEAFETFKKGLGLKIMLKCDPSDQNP
UniProt Q13442: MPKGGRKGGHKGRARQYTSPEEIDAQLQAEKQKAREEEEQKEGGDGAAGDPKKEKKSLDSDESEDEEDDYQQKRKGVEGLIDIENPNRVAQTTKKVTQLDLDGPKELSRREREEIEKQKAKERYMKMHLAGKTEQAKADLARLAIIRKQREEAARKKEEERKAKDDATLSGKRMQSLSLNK
UniProt Q13045: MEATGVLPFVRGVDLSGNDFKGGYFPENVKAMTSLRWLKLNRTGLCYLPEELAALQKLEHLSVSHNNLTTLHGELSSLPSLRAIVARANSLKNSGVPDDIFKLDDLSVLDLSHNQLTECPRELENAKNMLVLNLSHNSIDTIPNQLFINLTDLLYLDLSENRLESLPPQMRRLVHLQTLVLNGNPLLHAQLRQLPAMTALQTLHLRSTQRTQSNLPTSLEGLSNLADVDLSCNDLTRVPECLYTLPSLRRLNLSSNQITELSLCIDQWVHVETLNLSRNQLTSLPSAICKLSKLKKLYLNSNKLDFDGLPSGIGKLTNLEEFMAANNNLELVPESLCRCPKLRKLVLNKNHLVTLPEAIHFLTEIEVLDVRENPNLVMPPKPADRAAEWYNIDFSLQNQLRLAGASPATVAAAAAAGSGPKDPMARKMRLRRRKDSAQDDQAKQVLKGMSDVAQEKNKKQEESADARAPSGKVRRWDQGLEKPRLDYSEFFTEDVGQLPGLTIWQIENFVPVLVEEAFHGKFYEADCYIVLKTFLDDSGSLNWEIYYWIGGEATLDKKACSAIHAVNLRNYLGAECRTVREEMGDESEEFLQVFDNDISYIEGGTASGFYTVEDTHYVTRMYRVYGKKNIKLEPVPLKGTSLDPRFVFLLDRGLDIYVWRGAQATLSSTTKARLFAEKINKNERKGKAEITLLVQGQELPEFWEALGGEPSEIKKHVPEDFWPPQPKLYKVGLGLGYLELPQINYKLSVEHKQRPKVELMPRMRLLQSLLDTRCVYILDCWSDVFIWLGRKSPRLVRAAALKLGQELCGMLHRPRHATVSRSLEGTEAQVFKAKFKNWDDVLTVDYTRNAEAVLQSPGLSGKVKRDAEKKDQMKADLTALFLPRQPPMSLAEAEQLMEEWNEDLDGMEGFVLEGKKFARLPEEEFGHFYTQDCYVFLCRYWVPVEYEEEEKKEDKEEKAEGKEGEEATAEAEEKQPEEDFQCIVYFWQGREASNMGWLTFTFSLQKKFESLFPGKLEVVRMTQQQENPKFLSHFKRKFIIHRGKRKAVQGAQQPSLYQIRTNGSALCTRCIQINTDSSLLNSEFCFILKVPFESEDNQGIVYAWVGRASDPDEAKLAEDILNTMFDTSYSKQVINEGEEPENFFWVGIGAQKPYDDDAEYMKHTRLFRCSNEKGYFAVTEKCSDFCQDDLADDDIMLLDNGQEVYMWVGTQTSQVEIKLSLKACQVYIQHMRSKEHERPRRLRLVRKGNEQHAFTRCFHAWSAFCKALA
UniProt Q0VDF9: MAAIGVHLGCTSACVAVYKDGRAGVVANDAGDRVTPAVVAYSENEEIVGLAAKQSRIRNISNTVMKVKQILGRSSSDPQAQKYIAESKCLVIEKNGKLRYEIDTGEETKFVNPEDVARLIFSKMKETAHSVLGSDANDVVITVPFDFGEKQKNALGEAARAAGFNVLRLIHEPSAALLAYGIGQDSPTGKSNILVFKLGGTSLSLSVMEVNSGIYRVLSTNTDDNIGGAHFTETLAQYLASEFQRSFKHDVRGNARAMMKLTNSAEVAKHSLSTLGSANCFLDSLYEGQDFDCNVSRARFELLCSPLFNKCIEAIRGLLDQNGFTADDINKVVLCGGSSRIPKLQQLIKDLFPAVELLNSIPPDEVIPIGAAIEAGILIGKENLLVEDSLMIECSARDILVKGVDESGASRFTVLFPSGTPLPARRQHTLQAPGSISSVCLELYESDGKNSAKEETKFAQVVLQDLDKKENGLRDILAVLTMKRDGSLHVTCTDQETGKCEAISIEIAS
UniProt Q14151: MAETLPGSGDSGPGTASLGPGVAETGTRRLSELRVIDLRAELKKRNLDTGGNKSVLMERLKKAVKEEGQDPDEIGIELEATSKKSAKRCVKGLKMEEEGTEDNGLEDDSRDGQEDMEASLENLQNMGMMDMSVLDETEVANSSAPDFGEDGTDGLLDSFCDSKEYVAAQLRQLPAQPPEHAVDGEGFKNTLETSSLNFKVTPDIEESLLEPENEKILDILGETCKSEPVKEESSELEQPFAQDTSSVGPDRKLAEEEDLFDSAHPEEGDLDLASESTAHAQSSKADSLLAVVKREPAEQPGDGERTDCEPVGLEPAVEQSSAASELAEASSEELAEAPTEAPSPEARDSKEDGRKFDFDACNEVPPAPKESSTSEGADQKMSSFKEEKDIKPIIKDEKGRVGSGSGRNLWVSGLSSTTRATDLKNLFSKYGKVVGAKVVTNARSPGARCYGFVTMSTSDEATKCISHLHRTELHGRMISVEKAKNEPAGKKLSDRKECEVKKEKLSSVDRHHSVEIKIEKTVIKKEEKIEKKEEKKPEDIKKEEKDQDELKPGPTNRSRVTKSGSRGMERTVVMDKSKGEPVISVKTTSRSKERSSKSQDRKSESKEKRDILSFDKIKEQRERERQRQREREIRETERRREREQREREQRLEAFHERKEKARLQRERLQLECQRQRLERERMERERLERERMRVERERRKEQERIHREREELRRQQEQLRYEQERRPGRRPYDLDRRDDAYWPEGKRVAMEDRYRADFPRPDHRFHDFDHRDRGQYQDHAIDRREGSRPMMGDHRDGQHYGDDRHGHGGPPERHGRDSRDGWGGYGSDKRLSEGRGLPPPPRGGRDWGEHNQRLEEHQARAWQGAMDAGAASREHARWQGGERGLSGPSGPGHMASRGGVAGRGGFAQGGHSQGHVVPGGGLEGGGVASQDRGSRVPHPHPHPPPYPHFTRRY
UniProt Q08752, whole entry: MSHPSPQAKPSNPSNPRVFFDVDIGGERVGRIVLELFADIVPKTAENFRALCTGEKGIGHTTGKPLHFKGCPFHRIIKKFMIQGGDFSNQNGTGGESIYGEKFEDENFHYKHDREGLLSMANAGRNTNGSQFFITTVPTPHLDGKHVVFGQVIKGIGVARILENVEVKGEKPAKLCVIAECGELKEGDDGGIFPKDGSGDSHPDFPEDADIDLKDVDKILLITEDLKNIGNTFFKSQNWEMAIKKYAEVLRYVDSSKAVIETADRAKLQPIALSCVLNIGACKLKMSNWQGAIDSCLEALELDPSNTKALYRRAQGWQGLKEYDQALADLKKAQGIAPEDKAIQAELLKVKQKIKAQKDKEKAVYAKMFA
UniProt Q13547, whole entry: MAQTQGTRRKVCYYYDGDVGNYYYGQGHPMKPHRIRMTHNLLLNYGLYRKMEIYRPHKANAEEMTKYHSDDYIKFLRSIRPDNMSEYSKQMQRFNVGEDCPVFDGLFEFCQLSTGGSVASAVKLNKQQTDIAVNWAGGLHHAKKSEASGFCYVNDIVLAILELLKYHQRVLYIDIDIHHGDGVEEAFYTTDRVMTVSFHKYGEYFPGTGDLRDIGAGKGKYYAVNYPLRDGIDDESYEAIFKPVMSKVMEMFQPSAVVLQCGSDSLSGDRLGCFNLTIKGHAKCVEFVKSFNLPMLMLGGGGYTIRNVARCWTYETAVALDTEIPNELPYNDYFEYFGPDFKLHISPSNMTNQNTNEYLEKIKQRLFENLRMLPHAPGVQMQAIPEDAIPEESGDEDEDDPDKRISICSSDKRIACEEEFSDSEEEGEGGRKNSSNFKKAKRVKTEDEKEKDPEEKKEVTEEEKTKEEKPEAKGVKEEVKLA
UniProt Q13422: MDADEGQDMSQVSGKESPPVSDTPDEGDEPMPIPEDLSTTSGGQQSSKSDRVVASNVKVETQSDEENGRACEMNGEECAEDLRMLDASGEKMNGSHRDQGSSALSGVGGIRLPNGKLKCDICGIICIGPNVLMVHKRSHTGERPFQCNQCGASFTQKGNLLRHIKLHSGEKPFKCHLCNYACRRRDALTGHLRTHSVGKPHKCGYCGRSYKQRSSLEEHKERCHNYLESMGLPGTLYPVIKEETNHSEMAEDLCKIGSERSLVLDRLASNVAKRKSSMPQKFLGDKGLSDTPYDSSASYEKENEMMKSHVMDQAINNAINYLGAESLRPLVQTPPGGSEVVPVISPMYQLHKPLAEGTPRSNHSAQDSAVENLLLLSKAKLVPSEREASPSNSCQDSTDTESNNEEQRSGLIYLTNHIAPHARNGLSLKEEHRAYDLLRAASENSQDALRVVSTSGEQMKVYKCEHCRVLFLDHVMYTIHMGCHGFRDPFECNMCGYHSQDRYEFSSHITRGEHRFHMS

Compound: Nc1nc2c(ncn2[C@@H]2O[C@H](COP(=O)(O)OP(=O)(O)OP(=O)(O)O)[C@@H](O)[C@H]2O)c(=O)[nH]1 [guanosine triphosphate]
Assay: NP40-soluble protein abundance relative to vehicle (solubility fold change) (ratio); higher = more soluble protein in presence of GTP
Summary of the method: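 Each value is a fold change relative to the detergent-processed vehicle, calculated per replicate from vsn-normalised intensities. Jurkat crude lysate received eight concentrations (0.1 to 10 mM) for 10 min at room temperature and 3 min at 37 °C, then was solubilised in 0.8% NP40 with benzonase (60 min, 4 °C). The ultracentrifuged supernatant was TMT-labelled and run by LC-MS/MS in three independent experiments.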

Target	NP40-soluble protein abundance (concentration: 0.1mM)	NP40-soluble protein abundance (concentration: 0.5mM)	NP40-soluble protein abundance (concentration: 1mM)	NP40-soluble protein abundance (concentration: 2mM)	NP40-soluble protein abundance (concentration: 4mM)	NP40-soluble protein abundance (concentration: 6mM)	NP40-soluble protein abundance (concentration: 8mM)	NP40-soluble protein abundance (concentration: 10mM)
UniProt Q02809 and related entries	1.01 ± 0.082	1.05 ± 0.029	0.95 ± 0.045	1.03 ± 0.067	1.03 ± 0.098	0.996 ± 0.075	0.941 ± 0.035	1.01 ± 0.056
PAK1 (UniProt Q13153)	0.979 ± 0.071	0.988 ± 0.053	0.956 ± 0.048	0.944 ± 0.068	0.936 ± 0.051	0.959 ± 0.052	0.951 ± 0.049	0.974 ± 0.077
LGALS3BP (UniProt Q08380)	0.957 ± 0.039	0.989 ± 0.11	1.05 ± 0.11	1.11 ± 0.14	1.13 ± 0.11	1.13 ± 0.18	1.1 ± 0.13	1.16 ± 0.21
EIF3I (UniProt Q13347)	1.02 ± 0.04	1.03 ± 0.091	0.993 ± 0.089	1.04 ± 0.15	1.13 ± 0.19	1.26 ± 0.26	1.32 ± 0.23	1.4 ± 0.29
LCP2 (UniProt Q13094)	0.9336 ± 0.0033	0.935 ± 0.055	0.998 ± 0.035	0.938 ± 0.065	0.92 ± 0.059	0.964 ± 0.083	0.967 ± 0.019	0.961 ± 0.019
SORD (UniProt Q00796)	0.971 ± 0.079	1.01 ± 0.049	0.915 ± 0.056	0.931 ± 0.019	0.924 ± 0.037	0.9311 ± 0.0048	0.931 ± 0.075	0.909 ± 0.022
IK (UniProt Q13123)	0.955 ± 0.061	0.966 ± 0.087	1.01 ± 0.05	1 ± 0.079	1.08 ± 0.059	1.14 ± 0.074	1.22 ± 0.074	1.24 ± 0.095
ITK (UniProt Q08881)	0.998 ± 0.085	1.07 ± 0.15	0.931 ± 0.13	0.955 ± 0.15	0.915 ± 0.1	0.913 ± 0.11	0.857 ± 0.076	0.862 ± 0.13
ITPR2 (UniProt Q14571)	1.1 ± 0.11	1.17 ± 0.2	1.18 ± 0.19	1.31 ± 0.24	1.33 ± 0.26	1.37 ± 0.27	1.35 ± 0.3	1.3 ± 0.28
UniProt Q12802 and related entries	0.99 ± 0.12	1.01 ± 0.092	1.01 ± 0.099	1 ± 0.12	0.977 ± 0.11	1.04 ± 0.11	1.02 ± 0.1	1.02 ± 0.084
PDAP1 (UniProt Q13442)	1.02 ± 0.05	1 ± 0.045	1.11 ± 0.085	1.1 ± 0.078	1.2 ± 0.16	1.29 ± 0.09	1.38 ± 0.16	1.59 ± 0.21
UniProt Q13045 and related entries	1.026 ± 0.01	1.05 ± 0.032	0.992 ± 0.017	0.988 ± 0.036	1 ± 0.033	0.983 ± 0.05	0.973 ± 0.021	0.944 ± 0.0043
HSPA14 (UniProt Q0VDF9)	1.02 ± 0.031	0.988 ± 0.059	0.954 ± 0.04	0.929 ± 0.05	0.94 ± 0.03	0.908 ± 0.029	0.947 ± 0.031	0.902 ± 0.048
UniProt Q13951 and related entries	1.01 ± 0.045	1.03 ± 0.058	1.04 ± 0.052	0.982 ± 0.083	0.967 ± 0.06	1.02 ± 0.062	1.06 ± 0.027	1.01 ± 0.039
CENPE (UniProt Q02224)	1.12 ± 0.013	0.98 ± 0.034	1.2 ± 0.022	1.05 ± 0.074	1.241 ± 0.0034	1.04 ± 0.026	1.3 ± 0.11	1.08 ± 0.094
SAFB2 (UniProt Q14151)	0.948 ± 0.091	0.972 ± 0.1	0.982 ± 0.066	1.01 ± 0.096	1.04 ± 0.084	1.07 ± 0.081	1.14 ± 0.078	1.2 ± 0.079
UniProt Q13425 and related entries	1.09 ± 0.032	1.05 ± 0.081	1.04 ± 0.041	1.06 ± 0.031	1.08 ± 0.027	1.04 ± 0.043	1.1 ± 0.075	1.02 ± 0.068
UniProt Q13564 and related entries	1.02 ± 0.016	1.016 ± 0.0095	1.01 ± 0.028	0.98 ± 0.041	0.962 ± 0.043	0.939 ± 0.055	0.978 ± 0.031	0.936 ± 0.037
PPID (UniProt Q08752)	0.937 ± 0.034	0.909 ± 0.045	0.914 ± 0.048	0.864 ± 0.075	0.841 ± 0.073	0.846 ± 0.074	0.842 ± 0.052	0.841 ± 0.068
UniProt Q07021 and related entries	0.809 ± 0.2	0.659 ± 0.19	0.779 ± 0.35	0.926 ± 0.23	0.745 ± 0.31	0.976 ± 0.19	0.862 ± 0.36	0.819 ± 0.043
PPIL2 (UniProt Q13356)	1.12 ± 0.045	1.1 ± 0.088	1.13 ± 0.044	1.11 ± 0.11	1.18 ± 0.049	1.15 ± 0.11	1.17 ± 0.085	1.14 ± 0.11
UniProt Q14318-2|Q14318	0.974 ± 0.053	0.989 ± 0.067	1 ± 0.078	0.974 ± 0.095	0.984 ± 0.086	0.994 ± 0.077	1.02 ± 0.059	1.03 ± 0.086
UniProt Q13642-1|Q13642-4|Q13642-5	1.07 ± 0.16	1.09 ± 0.17	0.946 ± 0.13	0.921 ± 0.14	0.932 ± 0.12	0.911 ± 0.12	0.952 ± 0.093	0.915 ± 0.15
UniProt Q06330 and related entries	1.11 ± 0.059	1.04 ± 0.058	1.04 ± 0.06	1.01 ± 0.06	1.03 ± 0.028	1.01 ± 0.056	1.06 ± 0.029	0.946 ± 0.082
HDAC1 (UniProt Q13547)	0.939 ± 0.086	1.03 ± 0.1	0.981 ± 0.078	0.987 ± 0.12	0.978 ± 0.14	1.07 ± 0.17	1.04 ± 0.16	1.01 ± 0.1
UniProt Q14247 and related entries	0.994 ± 0.06	1.03 ± 0.072	1.04 ± 0.087	1.02 ± 0.064	1.07 ± 0.065	1.04 ± 0.06	1.11 ± 0.1	1.07 ± 0.065
UniProt Q03188	0.957 ± 0.11	0.964 ± 0.052	1.05 ± 0.095	0.973 ± 0.098	0.991 ± 0.12	1 ± 0.1	1.02 ± 0.11	1.07 ± 0.1
UniProt Q13501 and related entries	1.02 ± 0.065	1.01 ± 0.043	1.1 ± 0.085	1.11 ± 0.13	1.12 ± 0.15	1.09 ± 0.13	1.16 ± 0.18	1.19 ± 0.23
UniProt Q12789 and related entries	1.08 ± 0.051	1.08 ± 0.093	1.1 ± 0.1	1.13 ± 0.09	1.13 ± 0.1	1.1 ± 0.077	1.1 ± 0.11	1.1 ± 0.11
UniProt Q13422 and related entries	0.987 ± 0.044	0.997 ± 0.038	1.01 ± 0.016	1 ± 0.029	1.02 ± 0.018	1.063 ± 0.0066	1.11 ± 0.021	1.13 ± 0.045

Taken from above:
For NP40-soluble protein abundance (concentration: 2mM), UniProt Q12789 and related entries is entered as 1.13 ± 0.09
For NP40-soluble protein abundance (concentration: 2mM), UniProt Q14247 and related entries is entered as 1.02 ± 0.064
